Assay results reported in patent publication US7622498B2, “Sugar derivatives comprising oxiranes or α, β-unsaturated δ-lactones, process for their preparation and their utilisation as pesticides” (Instituto Politecnico de Santarem/Escoal Superior Agraria, priority 2004, dated 2009).

Assays:
[1] = system: adult fruit fly (D. melanogaster); test: Method A: topical treatment of adult fruit fly; assay type: in vivo, Drosophila melanogaster; details: slope of log-probit regression line, adult fruit flies
Experimental: Topical Treatment of Adult Fruit Fly (D. melanogaster)
A culture of fruit flies (D. melanogaster) was used in the production of adult flies (approx 0.22 mg) of about seven days.
Serial dilutions of the compounds were prepared in acetone, and volumes of approximately 0.2 μL were applied to the ventral surface of each insect, using a calibrated PAX 100 microapplicator and a 1 mL syringe.
The fruit flies, in groups of 5, were anaesthetised using carbon dioxide. Prior to recovery the flies were placed in a containing vial and kept at 30±1° C., for observations of mortality at 1, 2, 3 and 24 hours after treatment.
For this purpose solutions of 6 different concentrations and a control were employed in groups of 12 and 20 insects. Control mortalities were normally zero but occasionally rose to 5-10%.
(§1) Dosages used in insect treatments were based upon the amount of compound applied to each insect. For the shrimps the final concentrations of the compounds in the immersion brine were used.
(§2) The 24 hour mortalities were used to calculate the LD50/LC50 using regression analysis of the probability percent mortality (probit) against log dose/concentration.^30 This was calculated using PoloPC software (LeOra Software, Berkeley, Calif., 1994).
In the table are also given the confidence intervals at 95% for the LD50 values, the number of organisms tested, the slope obtained by linear regression and the index g (of significance). Data are considered satisfactory if g is substantially less than 1 and seldom greater than 0.4.^31
As regards the confidence intervals for LD50, the indication (90%) means that the intervals were calculated at 90% and not at 95%.

[2] = system: brine shrimp A. salina larvae; test: Method F: immersion bioassay of brine shrimp larvae in brine; assay type: in vivo; details: slope of log-probit regression line
Experimental: Immersion Bioassay of Brine Shrimp A. salina Larvae in Brine
Freshly hatched brine shrimps were prepared by adding aquarium brine shrimp eggs to salt water (15 g sea salt per litre water). The following day hatchlings were separated from eggs and empty egg cases, using their phototropic movement and a Pasteur pipette.
Into each of a set of small glass vials was pipetted 195 μL of brine containing 5 shrimp larvae, using a micropipette. The solution of the test compound in 5 μL acetone was added, the vial closed and kept at 30±1° C. for observation.
Dead and alive shrimps were counted, at 1 and 24 hours after treatment, using a microscope. Six concentrations and a control were used with 10 shrimps treated.
A blank test was performed for comparison of the results.
as §1, §2

[3] = system: house fly adults (M. domestica); test: Method E: topical treatment of house fly adults; assay type: in vivo, Musca domestica; details: slope of log-probit regression line, adult house flies
Experimental: Topical Treatment of House Fly Adults (M. domestica)
A culture of an insecticide-susceptible strain, Cooper, was established. Three-day-old adult house flies (body weight about […]) were anaesthetised with carbon dioxide. Using the PAX microapplicator, a volume of 1 μL of acetone solution of the test compounds was applied to the dorsal cuticle, holding the fly in padded forceps.
Groups of flies were placed into closed vials, kept at 30±1° C., for observation.
as §1, §2

[4] = system: fruit fly larvae; test: Method D: topical treatment of fruit fly larvae; assay type: in vivo, Drosophila melanogaster; details: slope of log-probit regression line
Experimental: Topical Treatment of Fruit Fly Larvae
Fruit fly larvae were separated from the growing medium and second and third instars were topically treated with 0.2 μL acetone solutions of the compounds using a PAX microapplicator.
Larvae were held in padded forceps for dosing and then placed on moistened filter paper, at 30±1° C., for observation.
as §1, §2

Molecule: CC1=C[C@H]([C@H]2O[C@@H]3OC(C)(C)O[C@@H]3[C@H]2OCc2ccccc2)OC1=O [Compound 1, 3-O-benzyl-6,7-dideoxy-1,2-O-isopropylidene-7-methyl-α-D-gluco-oct-6-enefuranurono-8,5-lactone]
- Slope [1]: 0.500 ± 0.124
- Slope [2]: 8.862 ± 2.644

Molecule: CC1=C[C@H]([C@H]2O[C@@H]3OC(C)(C)O[C@@H]3[C@@H]2OCc2ccccc2)OC1=O [Compound 2, 3-O-benzyl-6,7-dideoxy-1,2-O-isopropylidene-7-methyl-α-D-alo-oct-6-enefuranurono-8,5-lactone]
- Slope [1]: 0.308 ± 0.066
- Slope [2]: 9.217 ± 2.638

Molecule: CC1(C)O[C@H]2O[C@H]([C@H]3C=CC(=O)O3)[C@@H](OCc3ccccc3)[C@H]2O1 [Compound 3, 3-O-benzyl-6,7-dideoxy-1,2-O-isopropylidene-α-D-alo-oct-6-enefuranurono-8,5-lactone]
- Slope [1]: 0.340 ± 0.104
- Slope [2]: 7.763 ± 2.182

Molecule: CC1(C)O[C@H]2O[C@H]([C@H]3C=CC(=O)O3)[C@H](OCc3ccccc3)[C@H]2O1 [Compound 4, 3-O-benzyl-6,7-dideoxy-1,2-O-isopropylidene-α-D-gluco-oct-6-enefuranurono-8,5-lactone]
- Slope [1]: 0.385 ± 0.109
- Slope [2]: 9.770 ± 2.057

Molecule: CC(=O)OC[C@H]1OC(=O)C(Br)=C[C@@H]1OC(C)=O [Compound 5, 4,6-di-O-acetyl-2-bromo-2,3-dideoxy-D-erythro-hex-2-enone-1,5-lactone]
- Slope [3]: 0.228 ± 0.146
- Slope [1]: 0.296 ± 0.096
- Slope [4]: 1.602 ± 0.674
- Slope [2]: 0.423 ± 0.175

Molecule: CC1(C)OC2OC(C3CC(C)([Se]c4ccccc4)C(=O)O3)C(OCc3ccccc3)C2O1 [Compound 8, (7R)-/(7S)-3-O-Benzyl-6,7-dideoxy-1,2-O-isopropylidene-7-methyl-7-phenylselenyl-α-D-gluco-octofuranurono-8,5-lactone]
- Slope [3]: 0.383 ± 0.182
- Slope [1]: 0.453 ± 0.115
- Slope [2]: 10.359 ± 2.659

Molecule: CO[C@H]1O[C@H]([C@@H]2CO2)[C@@H]2O[C@H]12 [Compound 9, Methyl 2,3:5,6-Dianhydro-β-L-gulofuranoside]
- Slope [1]: 0.326 ± 0.106
- Slope [2]: 8.734 ± 1.862

Molecule: O=[N+]([O-])NC1=NCCN1Cc1ccc(Cl)nc1 [Imidacloprid, imidacloprid, reference compound]
- Slope [1]: 2.218 ± 0.911
- Slope [2]: 2.435 ± 0.802

Molecule: (7R)-/(7S)-3,6,7-Trideoxy-1,2-O-isopropylidene-7-methyl-7-phenylselenyl-α-D-ribo-octofuranurono-8,5-lactone [Compound 7]
- Slope [1]: 0.395 ± 0.104
- Slope [4]: 2.624 ± 0.810
- Slope [2]: 8.601 ± 2.195

Molecule: methyl (7R)-/(7S)-2,3-anhydro-6,7-dideoxy-7-methyl-7-phenylselenyl-α-gulo-octofuranurono-8,5-lactone [Compound 6]
- Slope [1]: 0.696 ± 0.155
- Slope [2]: 10.275 ± 2.421
